Reference: PubChem BioAssay AID2685 (National Center for Advancing Translational Sciences (NCATS), 2010)
The list shows a part of the results. The main result of the screen is listed elsewhere. These columns were measured beside it and carry no call. The list favours compounds with an active or inconclusive main result. Potencies come from curve fits of mixed quality, noted in brackets.

Assay: qHTS Assay for Lipid Storage Modulators in Drosophila S3 Cells;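 as to cell number change: cells counted by Cell Tracker Red CMTPX staining in the red channel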
Conditions: BODIPY lipid droplet fluorescence, 18-24 h; for cell number change: measured here: cell count max response, cells fed with added oleic acid
Procedure, shortened: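 Drosophila S3 cells got compounds at several concentrations plus oleic acid (400 uM solution). Laser-scanning cytometry with 488 nm excitation read lipid droplets at 500-530 nm and cells at 575-640 nm. Percent activity was relative to 20 uM Triacsin C.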

[1] = measured here: lipid fluorescence (Fed channel) AC50, cells fed with added oleic acid
[2] = measured here: cell number channel AC50, cells fed with added oleic acid

Structure (SMILES)	cell number change [%]	AC50 [1]	AC50 [2]
S=C(Nc1ccccc1)N1CCn2c1nc1ccccc12	7.64	130 nM [rising, full curve, poor fit]	–
CCC(C)NC(=O)C1CC(c2cccc(OC)c2)=NO1 (stereo unspecified)	-28.4	32600 nM [falling, single point]	–
Cc1onc(-c2ccccc2)c1C(=O)NCCc1ccc(Cl)cc1	-20.4	2590 nM [falling, partial curve]	–
O=C(Cc1ccc(Br)cc1)N1CCc2ccccc2C1	-8.21	–	–
CCOc1cc(/C=N/Nc2nc(Nc3ccccc3)nc(N3CCCCC3)n2)ccc1OCC(=O)O	38.7	820 nM [rising, full curve, poor fit]	651 nM [rising, partial curve]
O=C1NC(=Nc2ccccc2)SC1Cc1ccccc1 (stereo unspecified)	7.07	–	–
COc1ccc(-c2nc3cnccn3c2NCc2ccccc2)cc1SC1CCCCC1	-41.5	20600 nM [falling, partial curve]	16400 nM [falling, single point]
COc1ccc(CNc2nc3nc(C)c(Cl)c(=O)n3[nH]2)cc1OC	-15.9	23100 nM [falling, partial curve]	–
Cc1sc2nc(CN(C(=O)NC3CCCCC3)C3CCCC3)[nH]c(=O)c2c1C	34.6	1300 nM [rising, full curve]	–
Cc1cc(C)n(CC(C)NCc2cn[nH]c2-c2cccc3ccccc23)n1 (stereo unspecified)	2.79	731 nM [rising, full curve, poor fit]	–
CCCC(=O)C1=C(N2CCCC2)CC(C)(C)C(C(=O)OC)C1=O (stereo unspecified)	38.7	326 nM [rising, full curve, poor fit]	1300 nM [rising, full curve, poor fit]
O=C(COc1ccc(Cl)cc1)N1CCCCCCC1	-18.1	–	–
O=C(NCCOc1ccccc1Cl)C(=O)NCCOc1ccccc1Cl	36.3	–	206 nM [rising, full curve, poor fit]
Cc1ccc(C)c(NC(=O)CSc2ccc(-c3cccs3)nn2)c1	44.8	16400 nM [falling, single point]	29100 nM [rising, single point]
COc1ccccc1C(=O)NCc1nnc(SC(C)C(=O)Nc2nccs2)n1C (stereo unspecified)	–	580 nM [falling, single point]	–
CC(=O)Nc1ccc(N/C(N)=N/c2nc(C)cc(C)n2)cc1	18.4	13000 nM [rising, partial curve]	–
Cc1cnn(-c2nc(-c3cccs3)cc(C(F)(F)F)n2)c1	-2.9	32600 nM [falling, single point]	–
COc1ccc(SCC(=O)c2cc(C)c(OC(=S)N(C)C)c(C)c2)cc1	36.2	14600 nM [rising, partial curve]	5170 nM [rising, partial curve]
O=C(CCCCn1c(=O)c2ccccc2n(CC(=O)Nc2cccc(F)c2)c1=O)NCc1ccco1	-25	1160 nM [rising, single point]	–
Cc1ccc(NC(=O)c2ccc(S(=O)(=O)NCC3CCCO3)cc2)cc1 (stereo unspecified)	–	6510 nM [rising, single point]	–

Structure (SMILES)	cell number change [%]	AC50 [1]	AC50 [2]
CCOc1ccc(NC(=O)CS(=O)CC(=O)Nc2cccnc2)cc1 (stereo unspecified)	8.97	5170 nM [falling, single point]	–
CCOC(=O)N1CCN(C(=O)CSc2nnc(CNC(=O)c3c(F)cccc3Cl)o2)CC1	–	6510 nM [falling, partial curve]	–
COc1cc2c(cc1OC)C(C(=O)O)C(c1ccc(C)o1)N(C)C2=O (stereo unspecified)	-6.23	–	1300 nM [falling, full curve]
Cc1cc(C)c(S(=O)(=O)N2CCN(C(=O)c3cc(=O)[nH]c4ccccc34)CC2)c(C)c1	8.71	1840 nM [rising, partial curve, poor fit]	–
CCc1nn(CC(=O)NCCCN2CCN(C)CC2)c(=O)c2cc3sccc3n12	4.13	16400 nM [rising, single point]	–
O=C1c2c(Br)c(Br)c(Br)c(Br)c2C(=O)N1c1ccccn1	-51.4	2910 nM [falling, full curve]	18400 nM [falling, single point]
CCN(C(=O)COC(=O)CSc1ccc(F)cc1)c1c(N)n(Cc2ccccc2)c(=O)[nH]c1=O	2.98	–	–
Cc1cc(NS(=O)(=O)c2ccc(NC(=O)CCCOc3ccccc3C)cc2)no1	1.28	116 nM [falling, single point]	–
CCC(=O)OCCn1c(=O)c2ccccc2c2ccccc2c1=O	-14.5	2590 nM [falling, full curve]	–
COc1ccc(-n2nc(C(=O)NCC(=O)N3CCN(c4ccccc4F)CC3)c3ccccc3c2=O)cc1OC	3.85	–	5800 nM [rising, partial curve, poor fit]
Cn1nc(C(=O)NCc2ccccc2CN2CCCC2)c2ccccc2c1=O	4.82	–	–
COCCNC(=O)c1cc(-c2ccccc2)n(Cc2cc(C)no2)n1	27.5	–	–
O=C(O)COc1ccc(Oc2ccccc2)cc1	-57.5	16400 nM [falling, partial curve]	20600 nM [falling, partial curve, poor fit]
S=C(Nc1ccc2nsnc2c1)N1CCCCC1	-0.784	4.61 nM [falling, full curve, poor fit]	–
O=C(O)CCc1nnc2n(Cc3ccc(F)cc3)c(=O)c3ccccc3n12	11	–	–
CC(=O)c1cc2c(cc1NS(=O)(=O)c1ccc3c(c1)OCCO3)OCO2	13.7	1460 nM [rising, partial curve]	–
O=C(CCCc1c[nH]c2ccccc12)N1CCN(c2ccc(N3CCOCC3)nn2)CC1	-31	32600 nM [falling, single point]	18400 nM [falling, single point]
O=[N+]([O-])c1ccc(Oc2cccc(Br)c2)c2ccncc12	41.3	580 nM [falling, single point]	4110 nM [rising, full curve]
COc1ccc(NC(=O)CCC(=O)c2ccc(Cl)cc2)cn1	15	291 nM [rising, full curve, poor fit]	–
C=CCOC(=O)C1=C(C)NC(SCC(=O)OCC)=C(C#N)C1c1ccc(C)cc1 (stereo unspecified)	-20.2	29100 nM [falling, single point]	–

3 structures out of the list, arranged by length of the SMILES, falling:
Structure (SMILES)	cell number change [%]	AC50 [1]	AC50 [2]
CCOC(=O)N1CCN(C(=O)CSc2nnc(CNC(=O)c3c(F)cccc3Cl)o2)CC1	–	6510 nM [falling, partial curve]	–
COc1ccc(CNc2nc3nc(C)c(Cl)c(=O)n3[nH]2)cc1OC	-15.9	23100 nM [falling, partial curve]	–
Cc1onc(-c2ccccc2)c1C(=O)NCCc1ccc(Cl)cc1	-20.4	2590 nM [falling, partial curve]	–

The list goes on.

Structure (SMILES)	cell number change [%]	AC50 [1]	AC50 [2]
Cc1ccccc1C(=O)Nc1ccccc1C(=O)N1CCC(C)CC1	-19.2	130 nM [falling, full curve]	–
NS(=O)(=O)c1ccc(Nc2nc(-c3ccccc3)cs2)cc1	–	–	1840 nM [rising, partial curve]
COCCNc1cc(C)nc2cc(-c3ccc(C)cc3)nn12	–	6510 nM [rising, partial curve, poor fit]	–
Cn1c(SCC(=O)N2CCCC2=O)nc2ccccc21	-44.6	116 nM [falling, full curve]	164 nM [falling, full curve, poor fit]
C=CCN1C(=O)C2(C(C(=O)c3ccc(C)o3)=C(O)C(=O)N2CCCN2CCOCC2)c2ccccc21 (stereo unspecified)	-2.37	206 nM [rising, partial curve, poor fit]	–
Cc1cccc(NC(=O)c2cc(S(=O)(=O)N3CCOCC3)cn2C)c1C	19.3	29100 nM [rising, single point]	–
Cc1ccc2nc(-c3ccccn3)cc(C(=O)N3CCN(c4ncccn4)CC3)c2c1	32.4	731 nM [rising, full curve]	820 nM [rising, full curve]
CCc1ccccc1N1CC23C=CC(O2)C(C(=O)OC)C3C1=O (stereo unspecified)	-34.9	920 nM [falling, full curve]	259 nM [falling, full curve, poor fit]
CN1C(=O)C(CC(=O)Nc2ccc3c(c2)Cc2ccccc2-3)N(C)C1=O (stereo unspecified)	-20.6	–	–
COc1ccc(OC)c(NC(=O)Nc2cccc(Cn3cccn3)c2)c1	-94.8	29100 nM [falling, single point]	29100 nM [falling, single point]
O=C(COC(=O)c1c2c(nc3ccccc13)/C(=C/c1ccco1)CC2)NC1CCCC1	5.91	6510 nM [falling, single point]	7310 nM [falling, single point]
CC1CCCN(CC(=O)N2c3ccccc3Sc3ccccc32)C1 (stereo unspecified)	86.4	–	2590 nM [rising, full curve]
COc1ccccc1N(C1=NCCCS1)S(=O)(=O)c1ccc(C(C)(C)C)cc1	-19.8	9200 nM [falling, partial curve]	–
COC(=O)CCNC(=O)Cc1ccc(S(=O)(=O)N2CCCCC2)s1	-10.4	–	–
COc1cc(NC(=O)CSc2nccc(=O)[nH]2)c(C)cc1[N+](=O)[O-]	118	–	18400 nM [rising, single point]
CCOCCCNC(=O)COC(=O)/C=C/c1ccc(S(=O)(=O)N2CCc3ccccc32)cc1	13.1	920 nM [rising, full curve, poor fit]	1160 nM [rising, single point]
O=C(Nc1ccc(Cl)cc1)Nn1cnc2ccccc2c1=O	7.08	1160 nM [rising, single point]	–
Cc1ccc(CSc2nnc(-c3ccc(S(=O)(=O)N4CCCC4)cc3)o2)cc1	–	–	58 nM [rising, single point]
